Source: PubChem BioAssay AID1159506 (NCATS, 2015).

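Luminescence from an EWS-FLI1 target-promoter (NR0B1) reporter, set against a CMV-promoter reporter, two days after silencing single genes in TC32 Ewing sarcoma cells. Each siRNA was applied at 20 nM. A z-score of the log NR0B1-over-CMV signal, less the median of siRNAs with the same seed; more negative means a stronger specific loss of the NR0B1 reporter.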

This is part of the screen; most of the strongest results are not listed here. Sequences are the guide (antisense) strand, without overhang.

strand: AACUCAUACAGGUUCAGCC
target gene: PSMB3
seed-corrected z-score: 0.1314

strand: UCAGAUACAAGAGCUUGUC
target gene: TICAM1
seed-corrected z-score: 0.445

strand: UGAACUCAUAGAUAUCUGC
target gene: SH2D7
seed-corrected z-score: -1.359

strand: UGCUAAUUUUGUGACCUCC
target gene: AKR1C3
seed-corrected z-score: 0.2704

strand: AUGAUAUCCACAGAUGUGG
target gene: CDH17
seed-corrected z-score: -0.32

strand: UGAAGUCUCGAUGAGGACG
target gene: D2HGDH
seed-corrected z-score: 0.3518

strand: UAUUUAGGCAGAUUAUUCC
target gene: APOBEC3G
seed-corrected z-score: 1.224

strand: AUCAGAAUCAAUAAGGGUG
target gene: DHRS13
seed-corrected z-score: 1.708

strand: UAUAUGCCUGGAAAUAACC
target gene: MCOLN2
seed-corrected z-score: 0.02961

strand: AUAGUGAUGAGUUUGCCGU
target gene: ACTL7B
seed-corrected z-score: 0.859

strand: AUCUCAACAAAAUUCUGCC
target gene: C1orf87
seed-corrected z-score: 1.074

strand: UUGCUGUCGUCCUUCAUGC
target gene: TNNC1
seed-corrected z-score: -0.1407

strand: UUUCUAUCAAUCCUUGUCC
target gene: TRAPPC6B
seed-corrected z-score: 0.4265

strand: AGAACUAUAAAUAAUUUGG
target gene: FGF4
seed-corrected z-score: 0.6083

strand: UAGGAGCACUGGUUAUACG
target gene: MSANTD1
seed-corrected z-score: 0.05291

strand: UCCGCUCUCUUUAUCACCC
target gene: ZNF646
seed-corrected z-score: 0.03114

strand: AUAGUCGUAAUUAUUUUGC
target gene: NBPF3
seed-corrected z-score: 1.084

strand: UUUCUAUCACAGGAAAAUU
target gene: PATE1
seed-corrected z-score: -0.0203

strand: UCGCAGUUUAGAAAGAUCC
target gene: DDX50
seed-corrected z-score: 0.06612

strand: UUCAAGAUAACGACAACAG
target gene: ORC3
seed-corrected z-score: -0.4798

strand: UACAUGUCCAUUUAGCAAG
target gene: SS18L2
seed-corrected z-score: -1.029

strand: UACUACAAUAUGGACAUUC
target gene: FANCL
seed-corrected z-score: 0.5467

strand: UUUCGUUUUAGACCAGGUC
target gene: BLVRA
seed-corrected z-score: 0.3796

strand: UAUUCGAUGACGUAAUAGG
target gene: PTPRS
seed-corrected z-score: 0.3644

strand: UUUUGCGCAAGACAAGUUC
target gene: ZEB1
seed-corrected z-score: -0.177

strand: UCCGGUUUCUUCUCAGUAC
target gene: FBXO11
seed-corrected z-score: 0.6164

strand: UUCCACAUAACGAUGAAUU
target gene: AP1S2
seed-corrected z-score: 0.303

strand: AUUUGUCUCUGAGUGGUGC
target gene: NHSL2
seed-corrected z-score: -0.4319

strand: UGGAGAUCAACCAUGAACG
target gene: RNF44
seed-corrected z-score: -0.0538

strand: UUCGUUUCCAGUGCUGAAG
target gene: ST7L
seed-corrected z-score: -0.6305

strand: UUCUGCUUCACUUGACUCC
target gene: L3MBTL2
seed-corrected z-score: -1.064

strand: UAUUGAACGUAGUAGGUGC
target gene: RPS3AP49
seed-corrected z-score: 0.0051

strand: UGGGAUAUAAGGCACGUUC
target gene: MSL3P1
seed-corrected z-score: 0.1248

strand: UUGAGAUUGUGCACGUUGC
target gene: ORAI1
seed-corrected z-score: 0.982

strand: UCACUUUAUACUCAGAGUC
target gene: BARHL1
seed-corrected z-score: -0.1328

strand: UUCAAUUCCAAUGCGAAUG
target gene: KCTD20
seed-corrected z-score: -0.3136

strand: UUCUAUACCAGGAAUGGAG
target gene: XRCC5
seed-corrected z-score: 0.2092

strand: AGAUGGACAAGACUCCAUG
target gene: FAM24A
seed-corrected z-score: 0.7121

strand: UAUCCGAGCAGUUAGAGGG
target gene: DNASE2
seed-corrected z-score: 0.2054

strand: ACUUCUGUCACCGCCUUGC
target gene: SH3GL1
seed-corrected z-score: 0.2063

strand: UGCAGGUUGAACAAAGUGU
target gene: EVX2
seed-corrected z-score: -0.1943

strand: UGAAAUAACUUGUAACUCC
target gene: IL15
seed-corrected z-score: 0.9701

strand: UAGAGUGAUACAGCUAAUG
target gene: CNEP1R1
seed-corrected z-score: 0.5308

4 of the entries, repeated:

{"strand": "UAUCCGAGCAGUUAGAGGG", "target gene": "DNASE2", "seed-corrected z-score": "0.2054"}
{"strand": "UUCUAUACCAGGAAUGGAG", "target gene": "XRCC5", "seed-corrected z-score": "0.2092"}
{"strand": "AUCAGAAUCAAUAAGGGUG", "target gene": "DHRS13", "seed-corrected z-score": "1.708"}
{"strand": "UAUUUAGGCAGAUUAUUCC", "target gene": "APOBEC3G", "seed-corrected z-score": "1.224"}